Laboratory results as given in patent publication US20220195043A1.
No constants are given. Whether binding was seen depends on the method and setting. Some entries that bind do so weakly or less than the wild type.

Chains of the proteins cited; added tags and fusions are not shown. Lines headed by an entry give the natural chain unless they say otherwise; changes in a name come on top. Residues count along the entry.
UniProt Q95LI5: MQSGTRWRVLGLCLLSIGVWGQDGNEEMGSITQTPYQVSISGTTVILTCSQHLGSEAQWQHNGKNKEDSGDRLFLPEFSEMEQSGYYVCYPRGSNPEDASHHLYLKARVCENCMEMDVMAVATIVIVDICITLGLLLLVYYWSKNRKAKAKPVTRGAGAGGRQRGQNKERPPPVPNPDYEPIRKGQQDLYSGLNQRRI
UniProt P07766, residues 23-207: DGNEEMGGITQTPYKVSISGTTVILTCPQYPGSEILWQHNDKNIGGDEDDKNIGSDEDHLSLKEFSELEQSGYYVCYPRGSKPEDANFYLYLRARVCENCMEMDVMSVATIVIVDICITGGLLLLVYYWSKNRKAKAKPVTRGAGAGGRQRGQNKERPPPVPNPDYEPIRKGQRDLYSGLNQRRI

Columns and labels:
[1] = molecular target: monkey CD3ε-his (Cat #: 90047-C08H, SinoBiological, China) (monkey) (UniProt Q95LI5); assay: ELISA: plate coated with monkey CD3ε-his, antibody titrated, HRP goat anti-human IgG, OD 450
[2] = molecular target: human TCR/CD3 complex on cell surfaces (primary human CD4+ T cells; Jurkat cells; human PBMCs) (human) (UniProt P07766); assay: FACS on primary human T cells
[3] = molecular target: human TCR/CD3 complex on cell surfaces (primary human CD4+ T cells; Jurkat cells; human PBMCs) (human) (UniProt P07766); assay: FACS on primary human T cells, PE goat anti-human IgG, MFI
[4] = molecular target: monkey CD3ε-his (Cat #: 90047-C08H, SinoBiological, China) (monkey) (UniProt Q95LI5); assay: ELISA, plate coated with monkey CD3ε-his
[5] = molecular target: monkey CD3ε-his (Cat #: 90047-C08H, SinoBiological, China) (monkey) (UniProt Q95LI5); assay: SPR (BIAcore 8K); monkey CD3ε-his coupled to CM5 chip
[6] = molecular target: human TCR/CD3 complex on cell surfaces (primary human CD4+ T cells; Jurkat cells; human PBMCs) (human) (UniProt P07766); assay: FACS on human T cells

Measured: binding

B1: chimeric antibody 19-26 (full length, human IgG1) (antibody, V domains shown)
VH: EVKLLESGGGLVQPKGSLKLSCAASGFTFNTYAMNWVRQAPGKGLEWVARIRSKYNNYATYYADSVKDRFTISRDDSQSILYLQMNNLKTEDTAMYYCVRHGNFGNSYISWWAYWGQGTLVTVSA
VL: QAVVTQESALTTSPGETVTLTCKSSTGAVTTSNYANWVQEKPDHLFTGLIGGTNLHAPGVPARFSGSLIGDKAALTITGAQTEDEAIYFCALWYSNLWVFGGGTKLTVLG
binds: [1] | [2] | [3] | [4] | [5]

B2: chimeric antibody 19-15 (full length, human IgG1) (antibody, V domains shown)
VH: EVKLLESGGGLVQPKGSLKLSCAASGFTFNTYAMNWVRQAPGKGLEWVARIRSKYNNYATYYAISVKDRFTISRDDSQSILYLQMNNLKTEDTAMYYCVRHGNFGNSYLSYWAYWGQGTLVTVSA
VL: QAVVTQESALTTSPGETVTLTCQSSTGAVTTNNYANWVQEKPDHLFTGLIGGTKQRAPGVPARFSGSLIGDKAALTITGAQTEDEAIYFCVLWYSNLWVFGGGTKLTVLG
binds: [2] | [3]

B3: humanized anti-CD3 antibody 26H2L3 (human IgG1) (antibody, V domains shown)
VH: EVQLLESGGGLVQPGGSLRLSCAASGFTFNTYAMNWVRQAPGKGLEWVARIRSKYNNYATYYADSVKDRFTISRDNSKNTLYLQMNSLRAEDTAVYYCVKHGNFGNSYISWWAYWGQGTLVTVSS
VL: QAVVTQEPSLTVSPGGTVTLTCKSSTGAVTTSNYANWVQQKPGHAFRGLIGGTNLHAPGVPARFSGSLLGGKAALTLSGVQPEDEAEYYCALWYSNLWVFGGGTKLTVLG
binds: [6] | [1] | [3] | [4] | [5]

B4: humanized anti-CD3 antibody 26H3L3 (human IgG1) (antibody, V domains shown)
VH: EVQLLESGGGLVQPGGSLRLSCAASGFTFNTYAMNWVRQAPGKGLEWVARIRSKYNNYATYYADSVKDRFTISRDDSKNTLYLQMNSLRAEDTAMYYCVRHGNFGNSYISWWAYWGQGTLVTVSS
VL: QAVVTQEPSLTVSPGGTVTLTCKSSTGAVTTSNYANWVQQKPGHAFRGLIGGTNLHAPGVPARFSGSLLGGKAALTLSGVQPEDEAEYYCALWYSNLWVFGGGTKLTVLG
binds: [6] | [1] | [3] | [4] | [5]
